Test results reported in US4087548A, “Complement inhibitors” (American Cyanamid Company, priority 1976, dated 1978).
Structures can show the parent of a compound that is named as a salt. At least one structure is not confirmed: it was looked up by name or label, or the drawing left a doubt.

The chains behind the UniProt entries cited, without tags or fusion partners. Residues count along the entry.
UniProt P09871, 16-688: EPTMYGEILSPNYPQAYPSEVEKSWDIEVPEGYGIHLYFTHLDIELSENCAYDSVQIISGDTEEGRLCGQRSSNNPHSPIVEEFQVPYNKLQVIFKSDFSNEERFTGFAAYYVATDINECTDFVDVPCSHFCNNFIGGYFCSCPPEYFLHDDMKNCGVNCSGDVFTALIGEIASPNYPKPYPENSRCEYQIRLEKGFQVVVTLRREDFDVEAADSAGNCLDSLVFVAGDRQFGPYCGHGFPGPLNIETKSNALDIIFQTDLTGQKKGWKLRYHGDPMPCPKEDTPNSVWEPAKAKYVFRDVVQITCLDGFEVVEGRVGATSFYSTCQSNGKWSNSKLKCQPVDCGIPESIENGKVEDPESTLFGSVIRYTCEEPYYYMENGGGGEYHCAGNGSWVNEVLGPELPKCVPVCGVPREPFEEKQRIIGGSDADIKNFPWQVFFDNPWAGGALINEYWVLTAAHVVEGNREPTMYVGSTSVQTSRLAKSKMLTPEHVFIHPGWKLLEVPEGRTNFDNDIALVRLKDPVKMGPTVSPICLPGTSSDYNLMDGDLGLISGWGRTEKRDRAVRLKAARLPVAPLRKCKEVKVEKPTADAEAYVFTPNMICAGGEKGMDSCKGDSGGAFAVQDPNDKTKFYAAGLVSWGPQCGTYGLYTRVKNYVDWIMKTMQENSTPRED

Target: T1, activated human C1 (Homo sapiens, UniProt P09871)
T1 construct: C1s cleaved into disulfide-linked heavy and light chains; fluid-phase C2 consumption with C4
Experiment: Test, Code 026 (C1 inhibitor)
Assay type: biochemical
Settings: serial two-fold dilutions assay; higher well number indicates higher activity
Procedure: This test measures the ability of activated human C1 to destroy fluid phase human C2 in the presence of C4 and appropriate dilutions of the test compound. An active inhibitor protects C2 from C1 and C4; (ii) Test, Code 035 (C3-C9 inhibitor) -- This test determines the ability of the late components of human complement (C3-C9) to lyse EAC 142 in the presence of appropriate dilutions of the test compound. […] The lesion is measured in terms of diameter, edema and hemorrhage and the extent to which a combined index of these is inhibited by prior intraperitoneal injection of the test compound at 200 mg/kg is then reported, unless otherwise stated; (v) Forssman Shock Test -- Lethal shock is produced in guinea pigs by an i.v. injection of anti-Forssman antiserum and the harmonic mean death time of treated guinea pigs is compared with that of simultaneous controls; (vi) Complement Level Reduction Test -- In this test, the above dosed guinea pigs, or others, are bled for serum and the complement level is determined in undiluted serum by the capillary tube method of U.S. Pat. No. 3,876,376 and compared to undosed control guinea pigs; and (vii) Cap 50 Test -- Here, appropriate amounts of the test compound are added to a pool of guinea pig serum in vitro, after which the undiluted serum capillary tube assay referred to above is run. […]

O=C(Nc1cccc(C(=O)Nc2cc(S(=O)(=O)O)cc3cc(S(=O)(=O)O)cc(S(=O)(=O)O)c23)c1)c1cccc([N+](=O)[O-])c1 [8[m-(Nitrobenzamido)benzamido]-1,3,6-naphthalene-trisulfonic acid, trisodium salt]
Code 026 (activity in wells): +1 wells
